The other results are listed elsewhere or left out.
How the values were obtained:
Test in all cases: log2 fold change, soluble protein after heating vs DMSO (PISA); higher = thermal stabilisation; K562 cells, 10 uM, 30 min; active = over 0.2 and 3.5 SD of the protein, either way, in both replicates (recomputed)
[1] = compound: COC1=CC=C(C=C1)CN2C=CC3=C2C=C(C=C3)C(=O)NO
How it was run: (§1)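 K562 cells at 2×10^6 cells/mL were treated with 10 μM compound for 30 min. Aliquots were heated for 3 min across 48°C-58°C, pooled, and extracted in PBS with 0.5% NP-40 at 4°C; soluble protein was the supernatant after 21,000xg for 90 min. Soluble protein was quantified by TMTpro 16plex LC-MS/MS with channel sums equalised, and reported as log2 fold change in thermal stability against DMSO controls, with values from duplicates.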

Chains of the proteins cited; added tags and fusions are not shown. Lines headed by an entry give the natural chain unless they say otherwise; changes in a name come on top.
UniProt Q8N1G2: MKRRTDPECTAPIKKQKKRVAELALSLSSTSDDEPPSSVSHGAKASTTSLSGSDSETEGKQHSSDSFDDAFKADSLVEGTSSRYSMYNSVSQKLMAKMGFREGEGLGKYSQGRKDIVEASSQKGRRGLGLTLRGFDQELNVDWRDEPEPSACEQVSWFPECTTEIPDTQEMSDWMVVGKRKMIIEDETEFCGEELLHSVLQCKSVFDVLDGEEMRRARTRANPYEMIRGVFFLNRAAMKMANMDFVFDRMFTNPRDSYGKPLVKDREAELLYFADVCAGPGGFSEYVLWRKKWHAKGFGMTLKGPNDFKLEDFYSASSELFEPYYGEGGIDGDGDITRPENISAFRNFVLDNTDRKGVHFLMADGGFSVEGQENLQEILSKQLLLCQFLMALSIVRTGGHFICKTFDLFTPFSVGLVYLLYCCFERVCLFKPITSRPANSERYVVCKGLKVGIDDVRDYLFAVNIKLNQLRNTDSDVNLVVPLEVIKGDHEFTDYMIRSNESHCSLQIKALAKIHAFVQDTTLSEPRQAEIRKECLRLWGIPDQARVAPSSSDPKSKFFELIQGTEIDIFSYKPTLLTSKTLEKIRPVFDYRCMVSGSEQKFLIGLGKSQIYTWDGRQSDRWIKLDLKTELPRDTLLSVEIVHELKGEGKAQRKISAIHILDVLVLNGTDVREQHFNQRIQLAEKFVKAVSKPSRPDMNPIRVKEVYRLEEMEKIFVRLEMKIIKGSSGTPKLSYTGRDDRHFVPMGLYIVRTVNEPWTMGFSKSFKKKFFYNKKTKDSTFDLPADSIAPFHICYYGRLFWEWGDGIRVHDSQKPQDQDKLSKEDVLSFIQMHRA
UniProt Q5EBM0: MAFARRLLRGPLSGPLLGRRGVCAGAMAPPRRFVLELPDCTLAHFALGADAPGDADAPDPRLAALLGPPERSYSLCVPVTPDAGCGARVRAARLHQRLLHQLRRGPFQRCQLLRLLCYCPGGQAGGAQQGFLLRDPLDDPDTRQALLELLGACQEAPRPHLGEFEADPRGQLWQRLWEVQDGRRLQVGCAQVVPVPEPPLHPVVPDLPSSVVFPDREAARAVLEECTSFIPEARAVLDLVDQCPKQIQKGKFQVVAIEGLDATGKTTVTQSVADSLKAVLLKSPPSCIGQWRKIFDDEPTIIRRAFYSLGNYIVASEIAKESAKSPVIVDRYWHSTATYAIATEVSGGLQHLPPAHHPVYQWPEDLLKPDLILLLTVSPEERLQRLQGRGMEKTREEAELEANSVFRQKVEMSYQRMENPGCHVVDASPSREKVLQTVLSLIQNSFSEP
UniProt Q9Y2R0: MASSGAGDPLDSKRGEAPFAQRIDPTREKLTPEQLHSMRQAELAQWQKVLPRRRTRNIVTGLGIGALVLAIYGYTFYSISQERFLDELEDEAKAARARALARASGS
UniProt Q96DG6: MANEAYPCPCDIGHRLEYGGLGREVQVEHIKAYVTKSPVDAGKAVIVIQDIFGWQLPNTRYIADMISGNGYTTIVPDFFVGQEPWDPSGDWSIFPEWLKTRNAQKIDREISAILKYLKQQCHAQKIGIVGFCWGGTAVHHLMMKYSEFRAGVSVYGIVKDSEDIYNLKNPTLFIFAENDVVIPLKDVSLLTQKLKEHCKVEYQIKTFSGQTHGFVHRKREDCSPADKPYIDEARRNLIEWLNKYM
UniProt Q9BW66: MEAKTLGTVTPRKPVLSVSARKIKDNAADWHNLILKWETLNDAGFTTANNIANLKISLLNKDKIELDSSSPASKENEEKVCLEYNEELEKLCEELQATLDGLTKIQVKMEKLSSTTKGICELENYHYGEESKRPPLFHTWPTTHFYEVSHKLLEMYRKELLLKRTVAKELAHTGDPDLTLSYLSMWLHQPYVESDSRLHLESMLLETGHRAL
UniProt Q9Y2B0: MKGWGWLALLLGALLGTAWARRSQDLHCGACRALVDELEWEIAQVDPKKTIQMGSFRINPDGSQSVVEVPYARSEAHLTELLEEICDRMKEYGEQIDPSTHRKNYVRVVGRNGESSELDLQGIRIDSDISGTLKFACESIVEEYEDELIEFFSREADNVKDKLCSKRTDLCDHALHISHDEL
UniProt Q99439: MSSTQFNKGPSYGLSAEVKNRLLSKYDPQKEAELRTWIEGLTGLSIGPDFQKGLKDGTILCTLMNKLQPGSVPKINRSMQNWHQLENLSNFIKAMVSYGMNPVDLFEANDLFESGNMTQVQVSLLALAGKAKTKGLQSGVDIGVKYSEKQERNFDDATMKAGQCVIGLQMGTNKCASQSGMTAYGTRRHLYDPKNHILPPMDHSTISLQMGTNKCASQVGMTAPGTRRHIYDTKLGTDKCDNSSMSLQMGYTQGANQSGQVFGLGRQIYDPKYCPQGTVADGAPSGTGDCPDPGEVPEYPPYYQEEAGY
UniProt P62633: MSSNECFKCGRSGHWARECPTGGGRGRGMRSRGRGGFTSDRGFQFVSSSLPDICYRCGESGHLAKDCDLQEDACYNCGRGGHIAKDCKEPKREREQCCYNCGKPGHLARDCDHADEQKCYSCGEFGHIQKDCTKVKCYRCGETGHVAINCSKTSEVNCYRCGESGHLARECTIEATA
UniProt Q5JTJ3: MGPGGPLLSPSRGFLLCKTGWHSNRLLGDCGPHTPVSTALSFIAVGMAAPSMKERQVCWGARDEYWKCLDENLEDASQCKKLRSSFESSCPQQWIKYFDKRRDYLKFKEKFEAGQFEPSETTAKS
UniProt Q9H9A5, whole entry, looked up: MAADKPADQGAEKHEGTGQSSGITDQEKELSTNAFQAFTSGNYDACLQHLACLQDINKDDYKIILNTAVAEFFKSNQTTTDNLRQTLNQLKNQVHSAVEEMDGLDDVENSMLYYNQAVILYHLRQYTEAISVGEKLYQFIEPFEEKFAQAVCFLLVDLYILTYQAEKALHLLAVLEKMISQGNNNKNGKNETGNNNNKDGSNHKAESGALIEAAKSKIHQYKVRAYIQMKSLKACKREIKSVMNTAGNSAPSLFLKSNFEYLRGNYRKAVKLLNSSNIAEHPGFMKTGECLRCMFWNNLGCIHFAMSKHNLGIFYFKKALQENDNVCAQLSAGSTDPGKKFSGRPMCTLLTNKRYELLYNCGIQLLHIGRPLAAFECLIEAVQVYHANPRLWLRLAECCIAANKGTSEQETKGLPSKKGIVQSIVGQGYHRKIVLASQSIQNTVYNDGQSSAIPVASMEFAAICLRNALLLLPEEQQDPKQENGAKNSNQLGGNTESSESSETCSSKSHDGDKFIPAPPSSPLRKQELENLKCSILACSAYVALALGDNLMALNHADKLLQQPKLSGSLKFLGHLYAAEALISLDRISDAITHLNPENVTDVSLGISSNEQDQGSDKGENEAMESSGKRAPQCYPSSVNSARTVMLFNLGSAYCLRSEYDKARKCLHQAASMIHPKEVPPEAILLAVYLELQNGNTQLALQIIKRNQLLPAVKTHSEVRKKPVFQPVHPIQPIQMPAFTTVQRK
UniProt P0C7P0: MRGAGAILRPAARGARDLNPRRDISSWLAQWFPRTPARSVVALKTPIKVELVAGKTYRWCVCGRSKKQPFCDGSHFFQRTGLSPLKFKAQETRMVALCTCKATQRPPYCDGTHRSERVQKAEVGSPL
UniProt Q14011: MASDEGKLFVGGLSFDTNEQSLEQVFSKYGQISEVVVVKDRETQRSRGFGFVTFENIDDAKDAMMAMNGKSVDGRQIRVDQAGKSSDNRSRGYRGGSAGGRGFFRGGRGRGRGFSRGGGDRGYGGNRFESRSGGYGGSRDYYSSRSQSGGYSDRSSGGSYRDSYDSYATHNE
UniProt Q8NFW8: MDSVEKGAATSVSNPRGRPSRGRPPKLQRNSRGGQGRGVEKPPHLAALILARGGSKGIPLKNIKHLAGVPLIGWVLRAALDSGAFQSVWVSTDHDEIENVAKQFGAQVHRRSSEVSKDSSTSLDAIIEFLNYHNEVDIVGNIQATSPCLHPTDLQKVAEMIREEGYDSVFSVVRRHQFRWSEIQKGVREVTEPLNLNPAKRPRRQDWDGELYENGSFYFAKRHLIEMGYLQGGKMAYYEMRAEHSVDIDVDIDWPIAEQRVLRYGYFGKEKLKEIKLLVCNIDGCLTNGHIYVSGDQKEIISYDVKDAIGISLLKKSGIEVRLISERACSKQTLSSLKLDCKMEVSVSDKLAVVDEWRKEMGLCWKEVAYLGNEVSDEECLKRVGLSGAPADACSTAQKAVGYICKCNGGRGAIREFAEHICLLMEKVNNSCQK
UniProt Q9H5X1: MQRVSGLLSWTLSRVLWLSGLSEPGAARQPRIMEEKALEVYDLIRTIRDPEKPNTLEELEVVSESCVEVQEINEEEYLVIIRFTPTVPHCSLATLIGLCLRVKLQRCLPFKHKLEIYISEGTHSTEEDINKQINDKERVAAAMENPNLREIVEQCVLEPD
UniProt Q14008: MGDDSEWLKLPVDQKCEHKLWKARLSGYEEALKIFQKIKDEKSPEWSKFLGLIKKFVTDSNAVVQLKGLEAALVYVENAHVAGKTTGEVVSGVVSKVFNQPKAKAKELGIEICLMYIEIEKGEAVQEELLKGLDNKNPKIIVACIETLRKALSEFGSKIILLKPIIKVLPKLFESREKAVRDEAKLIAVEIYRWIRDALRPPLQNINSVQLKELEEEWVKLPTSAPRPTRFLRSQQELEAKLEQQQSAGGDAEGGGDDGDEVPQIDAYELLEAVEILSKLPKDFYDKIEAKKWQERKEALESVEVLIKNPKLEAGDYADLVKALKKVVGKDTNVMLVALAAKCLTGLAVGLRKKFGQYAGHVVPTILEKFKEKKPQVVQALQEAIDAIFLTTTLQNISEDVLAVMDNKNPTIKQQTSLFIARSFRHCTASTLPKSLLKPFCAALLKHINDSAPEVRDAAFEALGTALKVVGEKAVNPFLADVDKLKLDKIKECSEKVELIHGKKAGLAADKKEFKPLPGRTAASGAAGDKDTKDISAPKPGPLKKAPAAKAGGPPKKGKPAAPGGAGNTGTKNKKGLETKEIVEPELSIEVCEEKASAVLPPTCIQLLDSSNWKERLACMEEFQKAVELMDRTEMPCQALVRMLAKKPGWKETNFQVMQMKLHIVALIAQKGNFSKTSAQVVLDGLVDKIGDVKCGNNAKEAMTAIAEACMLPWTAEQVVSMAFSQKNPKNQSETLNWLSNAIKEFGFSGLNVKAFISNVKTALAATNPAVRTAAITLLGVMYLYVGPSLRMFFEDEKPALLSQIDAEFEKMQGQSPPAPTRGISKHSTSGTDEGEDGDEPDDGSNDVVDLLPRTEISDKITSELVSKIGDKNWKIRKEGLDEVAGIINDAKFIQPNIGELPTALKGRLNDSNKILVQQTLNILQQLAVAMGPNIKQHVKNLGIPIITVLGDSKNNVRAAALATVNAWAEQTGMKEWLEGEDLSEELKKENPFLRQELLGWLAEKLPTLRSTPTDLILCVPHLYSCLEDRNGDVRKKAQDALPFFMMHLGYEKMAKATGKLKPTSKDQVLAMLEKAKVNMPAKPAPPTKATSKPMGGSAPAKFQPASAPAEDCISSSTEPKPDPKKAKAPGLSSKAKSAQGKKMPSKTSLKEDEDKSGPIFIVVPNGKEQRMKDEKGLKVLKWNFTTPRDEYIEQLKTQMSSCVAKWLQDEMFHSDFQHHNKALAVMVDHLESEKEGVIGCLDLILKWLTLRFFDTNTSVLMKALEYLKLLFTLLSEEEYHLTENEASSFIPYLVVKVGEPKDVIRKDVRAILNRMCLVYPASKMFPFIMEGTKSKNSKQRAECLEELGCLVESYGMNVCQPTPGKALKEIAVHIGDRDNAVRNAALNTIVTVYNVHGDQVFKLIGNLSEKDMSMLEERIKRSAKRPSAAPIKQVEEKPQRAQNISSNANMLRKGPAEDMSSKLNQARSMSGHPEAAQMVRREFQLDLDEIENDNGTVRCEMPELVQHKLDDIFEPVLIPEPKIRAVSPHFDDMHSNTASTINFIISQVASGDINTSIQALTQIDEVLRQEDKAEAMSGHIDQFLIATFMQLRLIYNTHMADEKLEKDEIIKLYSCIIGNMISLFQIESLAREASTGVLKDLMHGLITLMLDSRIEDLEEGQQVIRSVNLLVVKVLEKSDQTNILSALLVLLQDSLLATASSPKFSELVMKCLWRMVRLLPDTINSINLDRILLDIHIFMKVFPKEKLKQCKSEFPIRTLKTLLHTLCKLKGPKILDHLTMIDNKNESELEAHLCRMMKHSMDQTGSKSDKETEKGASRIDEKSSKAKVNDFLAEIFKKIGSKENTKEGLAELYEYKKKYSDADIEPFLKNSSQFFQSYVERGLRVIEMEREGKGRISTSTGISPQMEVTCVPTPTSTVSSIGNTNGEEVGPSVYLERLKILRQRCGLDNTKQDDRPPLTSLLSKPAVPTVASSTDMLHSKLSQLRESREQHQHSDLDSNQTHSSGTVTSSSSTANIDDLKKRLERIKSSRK
UniProt Q96FZ7: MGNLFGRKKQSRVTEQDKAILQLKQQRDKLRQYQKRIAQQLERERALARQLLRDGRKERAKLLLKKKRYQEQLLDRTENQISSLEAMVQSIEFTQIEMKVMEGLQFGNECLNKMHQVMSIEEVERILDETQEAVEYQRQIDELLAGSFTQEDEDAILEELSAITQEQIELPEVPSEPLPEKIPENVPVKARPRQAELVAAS
UniProt Q9NRP2: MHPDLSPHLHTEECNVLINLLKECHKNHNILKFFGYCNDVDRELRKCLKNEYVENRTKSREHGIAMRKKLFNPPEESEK

[2] = compound: CON(C)C(=O)N1N=C(c2cc(F)ccc2F)S[C@@]1(CCCN)c1ccccc1 [filanesib]
How it was run: as §1

[3] = compound: CO[C@H]1C[C@@H]2CC[C@@H](C)[C@@](O)(O2)C(=O)C(=O)N2CCCC[C@H]2C(=O)O[C@H]([C@H](C)C[C@@H]2CC[C@H](n3cnnn3)[C@H](OC)C2)CC(=O)[C@H](C)/C=C(\C)[C@@H](O)[C@@H](OC)C(=O)[C@H](C)C[C@H](C)/C=C/C=C/C=C/1C [zotarolimus]
How it was run: as §1

[4] = compound: COc1cc(C(=O)O)ccc1NC(=O)[C@@H]1N[C@@H](CC(C)(C)C)[C@](C#N)(c2ccc(Cl)cc2F)[C@H]1c1cccc(Cl)c1F [idasanutlin]
How it was run: as §1

[5] = compound: COc1cc(Nc2ncc3c(n2)-c2ccc(Cl)cc2C(c2c(F)cccc2OC)=NC3)ccc1C(=O)O [alisertib]
How it was run: as §1

[6] = compound: COc1cc2nc(-c3cc(F)ccc3O)nc(N[C@@H]3CNC[C@H]3C(C)(C)O)c2cc1OC
How it was run: as §1

[7] = compound: COc1cc2ncnc(Nc3ccc(F)c(Cl)c3)c2cc1OCCCN1CCOCC1 [gefitinib]
How it was run: as §1

[8] = compound: COc1cccc2cc(-c3nc([C@H]4CC[C@H](C(=O)O)CC4)n4ncnc(N)c34)[nH]c12
How it was run: as §1

[9] = compound: CS(=O)(=O)CCNCc1ccc(-c2ccc3ncnc(Nc4ccc(OCc5cccc(F)c5)c(Cl)c4)c3c2)o1 [lapatinib]
How it was run: as §1

[10] = compound: CS(=O)(=O)N1CCN(Cc2cc3nc(-c4cccc5[nH]ncc45)nc(N4CCOCC4)c3s2)CC1 [pictilisib]
How it was run: as §1

Target | log2 fold change [1] | log2 fold change [2] | log2 fold change [3] | log2 fold change [4] | log2 fold change [5] | log2 fold change [6] | log2 fold change [7] | log2 fold change [8] | log2 fold change [9] | log2 fold change [10]
CMTR1 (UniProt Q8N1G2) | active: -0.337 | inactive: 0.001 | inactive: -0.013 | inactive: -0.052 | inactive: -0.026 | inactive: 0.065 | inactive: 0.025 | inactive: 0.017 | inactive: -0.012 | inactive: 0.009
CMPK2 (UniProt Q5EBM0) | inactive: 0.018 | inactive: 0.01 | inactive: 0.004 | inactive: -0.06 | inactive: 0.117 | inactive: 0.04 | inactive: -0.024 | inactive: 0.058 | inactive: 0.014 | inactive: 0.091
COL15A1 (UniProt P39059) | inactive: 0.055 | inactive: -0.005 | inactive: -0.018 | inactive: -0.055 | inactive: -0.085 | inactive: 0.05 | inactive: 0.02 | inactive: 0.067 | inactive: 0.14 | 
COA3 (UniProt Q9Y2R0) | inactive: -0.113 | inactive: 0.013 | inactive: -0.04 | inactive: -0.041 | inactive: -0.081 | inactive: -0.017 | inactive: 0.004 | inactive: 0.056 | inactive: -0.055 | inactive: -0.007
CMBL (UniProt Q96DG6) | inactive: 0.02 | inactive: -0.035 | inactive: -0.015 | inactive: -0.06 | inactive: -0.049 | inactive: 0.06 | inactive: 0.02 | inactive: 0.011 | inactive: -0.055 | inactive: 0.19
COA1 (UniProt Q9GZY4) | inactive: -0.018 | inactive: -0.085 | inactive: -0.07 | inactive: 0.014 | inactive: -0.043 | inactive: -0.098 | inactive: -0.016 | inactive: 0.119 | inactive: -0.027 | inactive: 0.018
COCH (UniProt O43405) | inactive: -0.018 | inactive: 0.024 | inactive: -0.018 | inactive: 0.077 | inactive: -0.063 | inactive: -0.144 | inactive: 0.131 | inactive: -0.078 | inactive: 0.049 | inactive: 0.001
CNOT3 (UniProt O75175) | inactive: -0.037 | inactive: 0.023 | inactive: 0.014 | inactive: 0.008 | inactive: -0.001 | inactive: 0 | inactive: -0.044 | inactive: -0.046 | inactive: 0.025 | inactive: 0.014
CNNM3 (UniProt Q8NE01) | inactive: 0.04 | inactive: 0.094 | inactive: -0.019 | inactive: -0.03 | inactive: -0.174 | inactive: -0.005 | inactive: 0.023 | inactive: 0.066 | inactive: 0.116 | inactive: -0.041
CNP (UniProt P09543) | inactive: -0.036 | inactive: 0.02 | inactive: 0.026 | inactive: -0.056 | inactive: -0.023 | inactive: 0.125 | inactive: 0.024 | inactive: 0.025 | inactive: -0.032 | inactive: 0.061
CINP isoform 3 (UniProt Q9BW66) | inactive: 0.036 | inactive: 0.021 | inactive: -0.019 | inactive: 0.002 | inactive: -0.033 | inactive: -0.02 | inactive: 0.043 | inactive: 0.04 | inactive: 0.003 | inactive: -0.009
CNPY2 (UniProt Q9Y2B0) | inactive: -0.085 | inactive: -0.013 | inactive: 0.025 | inactive: -0.036 | inactive: -0.045 | inactive: 0.012 | inactive: -0.009 | inactive: 0.036 | inactive: -0.018 | inactive: 0.015
CNN2 (UniProt Q99439) | inactive: -0.008 | inactive: -0.058 | inactive: -0.002 | inactive: -0.029 | inactive: -0.007 | inactive: 0.021 | inactive: 0.012 | inactive: -0.065 | inactive: -0.041 | inactive: -0.054
CNBP isoform 6 (UniProt P62633) | inactive: -0.019 | inactive: 0.089 | inactive: -0.001 | inactive: 0.013 | inactive: -0.086 | inactive: -0.064 | inactive: -0.011 | inactive: -0.036 | inactive: 0.011 | inactive: -0.012
COA6 isoform 2 (UniProt Q5JTJ3) | inactive: 0.02 | inactive: -0.029 | inactive: 0.019 | inactive: -0.052 | inactive: 0.002 | inactive: -0.042 | inactive: -0.003 | inactive: 0.022 | inactive: -0.017 | inactive: -0.006
CNNM4 (UniProt Q6P4Q7) | inactive: -0.065 | inactive: -0.001 | inactive: 0.031 | inactive: 0.06 | inactive: -0.076 | inactive: 0.231 | inactive: -0.112 | inactive: 0.118 | inactive: 0.005 | inactive: 0.005
COASY isoform 2 (UniProt Q13057) | inactive: 0.034 | inactive: -0.061 | inactive: 0.024 | inactive: -0.071 | inactive: -0.038 | inactive: 0.01 | inactive: -0.038 | inactive: 0.045 | inactive: 0.043 | inactive: 0.028
CNOT10 isoform 6 (UniProt Q9H9A5) | inactive: -0.009 | inactive: 0.031 | inactive: -0.083 | inactive: -0.054 | inactive: 0.014 | inactive: -0.015 | inactive: -0.001 | inactive: -0.01 | inactive: 0.043 | inactive: -0.116
CISD3 (UniProt P0C7P0) | inactive: -0.063 | inactive: -0.166 | inactive: 0.145 | inactive: 0.074 | inactive: 0.098 | inactive: -0.018 | inactive: 0.078 | inactive: 0.102 | inactive: 0.005 | inactive: 0.147
CKM (UniProt P06732) | inactive: 0.165 | inactive: -0.182 | inactive: -0.008 | inactive: -0.025 | inactive: -0.006 | inactive: -0.073 | inactive: -0.055 | inactive: 0.132 | inactive: 0 | inactive: 0.087
CIRBP isoform 2 (UniProt Q14011) | inactive: -0.005 | inactive: 0.248 | inactive: -0.048 | inactive: 0.085 | inactive: -0.118 | inactive: 0.017 | inactive: -0.063 | inactive: -0.051 | inactive: -0.034 | inactive: -0.095
CMAS (UniProt Q8NFW8) | inactive: -0.075 | inactive: 0.248 | inactive: 0.004 | inactive: 0.06 | inactive: 0 | inactive: 0.037 | inactive: -0.046 | inactive: -0.037 | inactive: 0.056 | inactive: -0.029
CHORDC1 (UniProt Q9UHD1) | inactive: 0.032 | inactive: -0.104 | inactive: 0.003 | inactive: -0.077 | inactive: -0.047 | inactive: 0 | inactive: -0.022 | inactive: 0.015 | inactive: -0.004 | inactive: 0.029
CIAO2A (UniProt Q9H5X1) | inactive: 0.001 | inactive: -0.123 | inactive: 0.004 | inactive: 0.015 | inactive: -0.136 | inactive: -0.099 | inactive: -0.008 | inactive: 0.045 | inactive: -0.041 | inactive: 0.071
CKMT2 (UniProt P17540) | inactive: 0.01 | inactive: 0.125 | inactive: -0.007 | inactive: 0.001 | inactive: 0.369 | inactive: 0.082 | inactive: 0.027 | inactive: 0.039 | inactive: -0.079 | inactive: -0.058
CKAP5 (UniProt Q14008) | inactive: 0.016 | inactive: 0.043 | inactive: 0.041 | inactive: 0.03 | inactive: -0.088 | inactive: -0.009 | inactive: 0.001 | inactive: -0.155 | inactive: -0.01 | inactive: -0.024
CNDP2 (UniProt Q96KP4) | inactive: -0.171 | inactive: -0.145 | inactive: 0.041 | inactive: -0.024 | inactive: -0.049 | inactive: -0.001 | inactive: -0.008 | inactive: 0.027 | inactive: 0.017 | inactive: 0.021
CNOT9 isoform 2 (UniProt Q92600) | inactive: 0.097 | inactive: 0.095 | inactive: 0.018 | inactive: -0.062 | inactive: -0.048 | inactive: 0.011 | inactive: 0.002 | inactive: -0.011 | inactive: 0.016 | inactive: 0.002
CHMP6 (UniProt Q96FZ7) | inactive: 0.069 | inactive: 0.07 | inactive: 0.03 | inactive: -0.098 | inactive: -0.034 | inactive: 0.067 | inactive: 0.015 | inactive: -0.016 | inactive: -0.037 | inactive: 0.133
CMC2 (UniProt Q9NRP2) | inactive: 0.205 | inactive: -0.029 | inactive: -0.025 | inactive: -0.015 | inactive: -0.004 | inactive: -0.009 | inactive: -0.009 | inactive: 0.033 | inactive: -0.032 | inactive: -0.05

Quoted at random: two entries already listed
Target | log2 fold change [1] | log2 fold change [2] | log2 fold change [3] | log2 fold change [4] | log2 fold change [5] | log2 fold change [6] | log2 fold change [7] | log2 fold change [8] | log2 fold change [9] | log2 fold change [10]
CMC2 (UniProt Q9NRP2) | inactive: 0.205 | inactive: -0.029 | inactive: -0.025 | inactive: -0.015 | inactive: -0.004 | inactive: -0.009 | inactive: -0.009 | inactive: 0.033 | inactive: -0.032 | inactive: -0.05
CMTR1 (UniProt Q8N1G2) | active: -0.337 | inactive: 0.001 | inactive: -0.013 | inactive: -0.052 | inactive: -0.026 | inactive: 0.065 | inactive: 0.025 | inactive: 0.017 | inactive: -0.012 | inactive: 0.009

Reference: the supplement of paper PMC10849652
